## Library screening results

Sequences of proteins named here, by UniProt entry; tags and fusion partners are left off.
UniProt E9BF75, entry or part of it: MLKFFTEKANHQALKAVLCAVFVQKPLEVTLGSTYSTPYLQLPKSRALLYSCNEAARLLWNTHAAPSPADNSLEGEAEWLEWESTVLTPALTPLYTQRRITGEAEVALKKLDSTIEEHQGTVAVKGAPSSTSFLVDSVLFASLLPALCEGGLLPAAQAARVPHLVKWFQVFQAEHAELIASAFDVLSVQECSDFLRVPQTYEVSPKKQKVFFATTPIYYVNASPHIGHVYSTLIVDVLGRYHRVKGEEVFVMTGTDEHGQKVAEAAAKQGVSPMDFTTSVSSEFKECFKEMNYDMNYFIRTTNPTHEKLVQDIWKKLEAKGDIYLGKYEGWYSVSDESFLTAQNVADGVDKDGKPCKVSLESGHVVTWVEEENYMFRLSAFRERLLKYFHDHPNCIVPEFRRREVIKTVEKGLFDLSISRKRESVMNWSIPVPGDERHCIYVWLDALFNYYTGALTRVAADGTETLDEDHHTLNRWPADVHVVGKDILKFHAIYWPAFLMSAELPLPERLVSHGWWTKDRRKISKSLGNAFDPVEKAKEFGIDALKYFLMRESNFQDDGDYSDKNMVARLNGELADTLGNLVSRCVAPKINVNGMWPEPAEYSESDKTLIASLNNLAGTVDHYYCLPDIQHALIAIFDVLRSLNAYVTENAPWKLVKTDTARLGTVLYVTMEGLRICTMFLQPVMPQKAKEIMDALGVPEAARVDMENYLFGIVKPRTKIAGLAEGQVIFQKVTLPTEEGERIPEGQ

Source: ChEMBL document CHEMBL3988442, “University of Dundee, Small-Polar-MMV Screening Library” (2021).

Results are percentages, as filed. The controls that fix the scale are not given in the record; negative values are as filed. Compounds were drawn at random from those tested, without regard to their results. A dash means the value is not listed here; it may have been measured.

A: 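Methionyl-tRNA synthetase (putative), Leishmania donovani (UniProt E9BF75). Primary screen of methionyl-tRNA synthetase; the read-out is not stated. The test concentration is not given. Values are per cent inhibition. Of about 68,000 compounds tested this way, about 24 (0.035%) reached 50% or more in at least one test.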
B: 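Assay on Mycobacterium tuberculosis, filed only as a heat shock assay from Cornell; the read-out is not stated. The concentration is filed as 10 mM, unlikely as a test dose, so the dose is not known. Direction is inferred from retests: higher values go with stronger inhibition. Of about 69,000 compounds tested this way, about 930 (1.4%) reached 50% or more in at least one test.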

compound,A,B
O=S1(=O)N=C(CSCc2ccccc2)Nc2ccccc21,13.71,2.766
Cc1nc(C)c(C)c(N2CCC3(CCOC3)C2)n1 (centres undefined),13.24,1.928
Cc1ncsc1C(=O)NCCn1nc2ccccn2c1=O,13.65,-12.07
CN1CCC(N2CCOC[C@H](OCC(=O)N(C)C)C2)CC1,11.28,-7.808
COCC(=O)NCc1cc(=O)n2c(n1)CN(Cc1nccs1)CCC2,20.67,8.042
CCOC(=O)CCC(=O)N1CC(c2nc(Cc3ccccc3)no2)C1,8.741,-24.64
Cn1ccnc1CN1CCN2C[C@H](Oc3cncnc3)C[C@H]2C1,8.148,-
[H][C@@]12CC(=O)/C(=C(\C)NC(=O)c3ccccn3)[C@]1([H])C2(C)C,-,17.9
COCc1cc(CN(C)C(=O)c2c[nH]nc2-c2cccc(F)c2)n[nH]1,0.3155,-7.771
O=C(c1cc2ccccc2[nH]c1=O)N1CCC2(CCCNC2)C1 (centres undefined),7.588,4.624
O=C(O)CC1COCCN1CCCc1ccccc1 (centres undefined),14.21,16.59
Cc1noc(C)c1CN1CC[C@H]2C[C@@H](c3nccs3)O[C@@H]2C1,13.13,-
Cn1cc(C(=O)N2CCCC(n3cccn3)C2)c2ccccc21 (centres undefined),6.993,-2.246
CC(C)CN1CCN(C)C2(CCN(Cc3ccsc3)CC2)C1=O.O=C(O)C(F)(F)F.O=C(O)C(F)(F)F,-,-18.88
CN(CCCN1CCCCCC1)C(=O)c1ccccc1NCC(=O)O,5.042,-2.259
Cc1cc2ncn(C(=O)N3CCCC3)c2cc1C,9.574,15.95
CC(C)c1nc(CN2CCN(CC3CCCO3)CC2)cs1 (centres undefined),3.472,8.53
O=C(CCc1nc2ccccc2[nH]1)N1CCCC(n2cccn2)C1 (centres undefined),13.11,-31.22
CCn1nccc1CN(C)C(=O)Cn1cc2c(n1)c(C)nn2CC,16.43,5.769
CCOC(=O)C1CN(CC2CC2)Cc2ncn(CC)c21.O=C(O)C(F)(F)F (centres undefined),-,-20.68
COCC(=O)N[C@H]1C[C@H]2C(=O)NC[C@@H](CCC(=O)NC3CC3)N2C1,3.846,-
O=C(O)C(F)(F)F.O=C1NCC[C@]12CN(Cc1nccs1)C[C@H]2c1ccccc1,-,-12.8
C(=C/c1ccccc1)\CNCC1CCc2nncn2C1 (centres undefined),4.805,-
CCC(C)NC(=O)c1nnn(-c2ccc(Br)cc2)n1 (centres undefined),5.96,-2.433
Cc1cc(CN2C[C@@H]3COC[C@H](C(=O)N4CCCCO4)[C@@H]3C2)oc1C,12.44,-
CC(C)CC(=O)N1C[C@@H]2CCN(c3cnccn3)C[C@@H]2C1,8.654,-
Cl.O=C(NCc1ccc(Cl)cc1)N1CCN(CC(O)C2CC2)CC1 (centres undefined),-,7.084
[H][C@@]12CCN(C(=O)c3ccc[nH]3)[C@]1([H])CC(=O)N2CCOC,-,10.08
CN(CCC(F)(F)F)Cc1nc2ccccc2c(=O)[nH]1,7.971,21.57
Cc1cc(C)n(CC2CN(CCOc3ccc(C#N)cc3)CCO2)n1 (centres undefined),21.14,-16.8
Cc1cccc(N2CCC3(CCCN(C(=O)c4cccnc4)C3)CC2)n1.O=C(O)C(F)(F)F.O=C(O)C(F)(F)F,-,-24.67
Clc1ccccc1CN1CCc2nc(C3CCCCN3)ncc2C1 (centres undefined),13.59,-
CCn1nc(C)c(NC(=O)CN2CC[C@@H](F)C2)c1C,14.83,-7.487
COc1ccc(CN2CCc3ncnc(C4CC4)c3CC2)cc1,20.86,-
COc1cc(C)ccc1OCC(=O)NS(=O)(=O)c1cccnc1,12.01,12.38
CC(CNC1CCN(c2ccccn2)CC1)Oc1ccc(F)cc1 (centres undefined),7.958,-12.3
Cn1ccnc1SCCNc1nccc(C(F)(F)F)n1,9.537,-25.16
CCC(=O)Nc1ccc(F)cc1OC,3.951,-19.24
COCCN1CCC2(CC1)CC(N1CCOCC1)c1ccc(C)cc12.O=C(O)C(F)(F)F.O=C(O)C(F)(F)F (centres undefined),-,-4.772
O=C1CCC2(CCCN(C(=O)c3cnccn3)CC2)N1 (centres undefined),7.778,-4.905
CCC(=O)N1CCc2onc(CNS(C)(=O)=O)c2C1,0.5865,-25.18
COCc1ccccc1C(=O)NS(=O)(=O)CCCC#N,14.21,1.062
Cc1ccc(CN[C@@H]2CO[C@H](CNS(=O)(=O)c3ccccc3)[C@H]2O)cc1,-2.373,-25.82
O=C(NCCn1nc2ccccn2c1=O)c1cc(-c2ccccc2)[nH]n1,10.97,10.99
NC(=O)NC(=O)CCN1CCN(CC2CC2)c2ccccc21,13.61,-11.96
Cn1cc(CN(Cc2ccccc2)Cc2ccccn2)cn1,3.492,-

Repeated from the top, 4 entries:

| compound | A | B |
|---|---|---|
| `O=S1(=O)N=C(CSCc2ccccc2)Nc2ccccc21` | 13.71 | 2.766 |
| `Cc1nc(C)c(C)c(N2CCC3(CCOC3)C2)n1` (centres undefined) | 13.24 | 1.928 |
| `Cc1ncsc1C(=O)NCCn1nc2ccccn2c1=O` | 13.65 | -12.07 |
| `CN1CCC(N2CCOC[C@H](OCC(=O)N(C)C)C2)CC1` | 11.28 | -7.808 |